Data as given in PubChem BioAssay AID652272 (Drosophila RNAi Screening Center, 2013).

Screen: 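Finding fly genes that regulate Hedgehog signal transduction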 (primary screen)
Cells: Drosophila clone 8 (Cl8) cells
Reagents: long dsRNA against Drosophila genes
Read-out: 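Plate reader light from a firefly reporter under a ptc promoter fragment that responds to Hedgehog, with Renilla light as transfection reference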
Direction: firefly Hh reporter signal: higher = more ptc reporter light; Renilla reference signal: higher = more Renilla control light
Hit rule: 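Called a hit if the two-replicate mean z-score lies below -2 or above +3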
Meaning of the calls: active = hit: reporter lowered or raised; inactive = not a hit
The deposit covers about 21,000 reagents; below is a random part of those that have a named target and a result. In the full data, 503 (2.4%) got an active call. 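Raw plate light values, not normalised; calls rest on replicate z-scores that were not deposited; hits include reporter decreases as well as increases.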 A plus sign joins genes that one reagent is predicted to hit. Reagent sequences are not shown. The record does not give: the amount of reagent, the time to read-out.

| predicted target | dsRNA | firefly Hh reporter signal, replicate 1 | firefly Hh reporter signal, replicate 2 | firefly Hh reporter signal, replicate 3 | Renilla reference signal, replicate 1 | Renilla reference signal, replicate 2 | Call |
| --- | --- | --- | --- | --- | --- | --- | --- |
| kumpel | DRSC14883 | 6.39e5 | 93044 | – | 32757 | 2864 | inactive |
| kumpel | DRSC16459 | 4.95e5 | 96464 | – | 26400 | 2935 | inactive |
| kumpel | DRSC16460 | 8.19e5 | 1.61e5 | – | 39587 | 4802 | inactive |
| kumpel | DRSC16461 | 5.62e5 | 1.22e5 | – | 27682 | 10100 | inactive |
| kumpel | DRSC16462 | 5.08e5 | 1.00e5 | – | 28940 | 8256 | inactive |
| kumpel | DRSC16463 | 5.87e5 | 1.21e5 | – | 29845 | 10448 | inactive |
| Cdk4 | DRSC07358 | 97489 | 54877 | – | 5890 | 3104 | inactive |
| drd | DRSC19343 | 87490 | 2.16e5 | – | 3248 | 8487 | inactive |
| GstD6 | DRSC16687 | 98885 | 76516 | – | 3533 | 2468 | inactive |
| GluRS-m | DRSC10431 | 1.00e5 | – | – | 5629 | 2972 | inactive |
| Dlc90F | DRSC16649 | 92042 | 71461 | – | 4141 | 3305 | inactive |
| Pgant6 | DRSC08552 | 1.52e5 | 92652 | – | 6136 | 3667 | inactive |
| Eip93F | DRSC13527 | 59057 | 3.39e5 | – | 11776 | 8133 | inactive |
| Eip93F | DRSC16661 | 7.91e5 | 1.67e5 | – | 42212 | 17171 | inactive |
| Rab3-GEF | DRSC19954 | 84848 | 2.47e5 | – | 3338 | 9507 | inactive |
| Rab3-GEF | DRSC19955 | 80524 | 2.32e5 | – | 3116 | 9808 | inactive |
| Rab3-GEF | DRSC19956 | 49360 | 1.15e5 | – | 2016 | 4621 | inactive |
| ddbt | DRSC07869 | 1.13e5 | 2.76e5 | – | 3024 | 11440 | inactive |
| Lhr | DRSC06759 | 63555 | 57120 | – | 4897 | 3724 | active |
| Abp1 | DRSC09693 | 40745 | 50301 | 61680 | 4432 | 4636 | inactive |
| cas | DRSC12373 | 75659 | 96369 | – | 3216 | 3208 | inactive |
| tll | DRSC17085 | 94169 | 1.48e5 | – | 2426 | 6267 | inactive |
| CG5402 | DRSC15792 | 66496 | 92493 | – | 1908 | 2722 | inactive |
| CG15625 | DRSC00460 | 1.28e5 | 52806 | – | 3650 | 5544 | inactive |
| CG15570 | DRSC18058 | 81365 | 1.86e5 | – | 2720 | 7130 | inactive |
| CG32639 | DRSC18972 | 3.27e5 | 1.51e5 | – | 18944 | 3894 | inactive |
| nolo | DRSC03705 | 80794 | 55804 | – | 3165 | 2213 | inactive |
| nolo | DRSC03719 | 87216 | 47164 | – | 2353 | 4820 | inactive |
| nolo | DRSC03720 | 91424 | 1.09e5 | – | 2496 | 6834 | inactive |
| Jon99Fii | DRSC15430 | 1.31e5 | 1.40e5 | – | 4934 | 3992 | inactive |
| CG30183 | DRSC04450 | 71424 | 46087 | – | 1756 | 5082 | inactive |
| CG30183 | DRSC04472 | 70869 | 49793 | – | 1655 | 5266 | inactive |
| CG2186 | DRSC19838 | 1.29e5 | 1.33e5 | – | 2471 | 2912 | inactive |
| CG9393 | DRSC16486 | 79040 | 87159 | – | 3920 | 3690 | inactive |
| CG14907 + Mettl4 | DRSC15026 | 75249 | 83709 | – | 2297 | 2091 | inactive |
| CG14907 + Mettl4 | DRSC15027 | 65693 | 83140 | – | 2288 | 2198 | inactive |
| CG5466 | DRSC15808 | 2.28e5 | 12980 | – | 14419 | 529 | inactive |
| CG7335 | DRSC10816 | 79760 | 1.57e5 | – | 2710 | 4199 | inactive |
| CG6638 | DRSC10680 | 43543 | 51312 | – | 5249 | 4198 | inactive |
| CG11384 | DRSC18628 | 77808 | 1.78e5 | – | 1521 | 7542 | inactive |
| Rpe | DRSC06407 | 90500 | 62266 | – | 3508 | 2427 | inactive |
| CG42809 | DRSC02532 | 1.27e5 | 58322 | – | 3504 | 5664 | inactive |
| CG15471 | DRSC18054 | 70032 | 1.92e5 | – | 2065 | 7728 | inactive |
| Pal2 | DRSC04507 | 70461 | 62480 | – | 1802 | 6033 | inactive |

Limited to “Renilla reference signal, replicate 1” (9 entries from above):
GluRS-m [DRSC10431]: 5629
Dlc90F [DRSC16649]: 4141
Pgant6 [DRSC08552]: 6136
Eip93F [DRSC13527]: 11776
Eip93F [DRSC16661]: 42212
Rab3-GEF [DRSC19954]: 3338
Rab3-GEF [DRSC19955]: 3116
Rab3-GEF [DRSC19956]: 2016
ddbt [DRSC07869]: 3024

Continued.
| predicted target | dsRNA | firefly Hh reporter signal, replicate 1 | firefly Hh reporter signal, replicate 2 | firefly Hh reporter signal, replicate 3 | Renilla reference signal, replicate 1 | Renilla reference signal, replicate 2 | Call |
| --- | --- | --- | --- | --- | --- | --- | --- |
| l(2)03659 | DRSC07269 | 1.49e5 | 69232 | – | 3712 | 5858 | inactive |
| l(2)03659 | DRSC07638 | 1.20e5 | 38343 | – | 3144 | 3308 | inactive |
| ND-MWFE | DRSC06364 | 1.26e5 | 69089 | – | 3542 | 5475 | inactive |
| Ance-4 | DRSC07104 | 86418 | 45062 | – | 1896 | 3780 | inactive |
| CG18476 | DRSC15281 | 87850 | 81808 | – | 3225 | 3161 | inactive |
| CG3430 | DRSC02713 | 58882 | 58538 | – | 3180 | 2448 | inactive |
| CCAP-R | DRSC14891 | 4.86e5 | 96902 | – | 26048 | 7350 | inactive |
| CCAP-R | DRSC15967 | 5.72e5 | 1.03e5 | – | 29525 | 7844 | inactive |
| CG12831 | DRSC06179 | 1.13e5 | 58816 | – | 3025 | 5092 | inactive |
| alpha-Man-IIa | DRSC15393 | 86194 | 85723 | – | 2538 | 2230 | inactive |
| Acsx3 | DRSC14309 | 77968 | 61271 | – | 3387 | 2499 | inactive |
| CG14402 | DRSC02386 | 1.12e5 | 37381 | – | 2996 | 3660 | inactive |
| sev | DRSC20372 | 82423 | 1.63e5 | – | 2361 | 6514 | inactive |
| robo1 | DRSC04712 | 1.01e5 | 81500 | – | 2882 | 7024 | inactive |
| CG3036 | DRSC00260 | 8.13e5 | 3.13e5 | – | 41505 | 13240 | inactive |
| CG3036 | DRSC00562 | 49408 | 96714 | – | 2355 | 3840 | inactive |
| Lamtor1 | DRSC10183 | 1.47e5 | 2.43e5 | – | 4720 | 5993 | inactive |
| kin17 | DRSC11890 | 65408 | 99345 | – | 2385 | 3475 | inactive |
| Fer3 | DRSC16133 | 1.07e5 | 78240 | – | 4576 | 3204 | inactive |
| Msp300 | DRSC00854 | 5.98e5 | 1.87e5 | – | 28339 | 7955 | inactive |
| Msp300 | DRSC00856 | 6.86e5 | 2.22e5 | – | 33333 | 10138 | inactive |
| Msp300 | DRSC00857 | 6.42e5 | 2.34e5 | – | 32844 | 9931 | inactive |
| Msp300 | DRSC00858 | 4.98e5 | 1.68e5 | – | 23068 | 7421 | inactive |
| Msp300 | DRSC02360 | 85520 | 45240 | – | 2554 | 4096 | inactive |
| Msp300 | DRSC03369 | 68080 | 57475 | – | 3408 | 2624 | inactive |
| Msp300 | DRSC03370 | 1.16e5 | 61817 | – | 3120 | 6394 | inactive |
| CG7707 | DRSC10903 | 1.46e5 | – | – | 2724 | 2637 | inactive |
| veli | DRSC16276 | 6.85e5 | 95857 | – | 36118 | 3514 | inactive |
| Sarm | DRSC08906 | 1.15e5 | 2.61e5 | – | 2874 | 9705 | inactive |
| Sarm | DRSC08907 | 1.40e5 | 2.19e5 | – | 3913 | 9307 | inactive |
| Sarm | DRSC10038 | 59648 | 70592 | – | 5824 | 5456 | inactive |
| Sarm | DRSC10039 | 37904 | 61739 | – | 5041 | 4524 | inactive |
| Sarm | DRSC10927 | 60727 | 63478 | – | 5675 | 4747 | inactive |
| Sarm | DRSC10929 | 1.26e5 | 86381 | – | 5232 | 3632 | inactive |
